Test results taken from the supplement of paper PMC12823440, “Inhibitors supercharge kinase turnover through native proteolytic circuits” (Nature, 2025).
Counter-ions that a name gives are not always drawn. Some of the results follow. Hit calls seldom repeat between salt and free forms of one compound.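 Kinases, fused to nanoluciferase, were expressed in K562 cells; luminescence was measured every 4 h from 2 to 18 h as percent of control (DMSO = 100%, positive control = 0%). A time point is decreased if signal falls significantly (2 sigma). Hits were called by the authors by a rule that is not shown; the count of time points alone does not decide it.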

Amino acid sequences for entries named in this document (tags omitted). A change or cut given only in a name is not applied to a line headed by its entry.
UniProt Q9UQM7, whole entry: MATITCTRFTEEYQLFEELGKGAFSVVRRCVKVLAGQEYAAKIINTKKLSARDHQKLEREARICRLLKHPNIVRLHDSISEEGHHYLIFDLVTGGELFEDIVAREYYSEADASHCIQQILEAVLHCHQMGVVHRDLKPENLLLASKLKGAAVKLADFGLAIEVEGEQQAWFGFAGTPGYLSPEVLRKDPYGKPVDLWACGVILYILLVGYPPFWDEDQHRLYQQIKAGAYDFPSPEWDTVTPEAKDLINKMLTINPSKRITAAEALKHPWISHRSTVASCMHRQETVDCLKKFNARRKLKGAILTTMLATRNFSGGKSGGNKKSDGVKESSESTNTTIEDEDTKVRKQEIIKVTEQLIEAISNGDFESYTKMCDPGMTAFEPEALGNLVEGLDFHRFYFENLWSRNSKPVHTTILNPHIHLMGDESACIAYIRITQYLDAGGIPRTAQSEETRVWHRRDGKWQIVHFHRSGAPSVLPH
UniProt Q13555: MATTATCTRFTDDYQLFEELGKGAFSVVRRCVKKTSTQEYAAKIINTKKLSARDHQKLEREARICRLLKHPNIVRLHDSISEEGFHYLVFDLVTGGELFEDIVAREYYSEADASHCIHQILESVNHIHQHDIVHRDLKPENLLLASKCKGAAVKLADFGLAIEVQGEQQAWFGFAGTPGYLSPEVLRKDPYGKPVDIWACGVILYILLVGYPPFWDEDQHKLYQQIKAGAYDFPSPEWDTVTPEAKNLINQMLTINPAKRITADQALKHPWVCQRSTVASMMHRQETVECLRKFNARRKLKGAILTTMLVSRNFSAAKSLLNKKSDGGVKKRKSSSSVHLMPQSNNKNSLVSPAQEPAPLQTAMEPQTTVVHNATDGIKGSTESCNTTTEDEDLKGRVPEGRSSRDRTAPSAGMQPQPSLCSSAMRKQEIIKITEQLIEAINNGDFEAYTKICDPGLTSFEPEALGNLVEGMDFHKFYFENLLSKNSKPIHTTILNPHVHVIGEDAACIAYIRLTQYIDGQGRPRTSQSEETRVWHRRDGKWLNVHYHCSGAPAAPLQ
UniProt Q15131: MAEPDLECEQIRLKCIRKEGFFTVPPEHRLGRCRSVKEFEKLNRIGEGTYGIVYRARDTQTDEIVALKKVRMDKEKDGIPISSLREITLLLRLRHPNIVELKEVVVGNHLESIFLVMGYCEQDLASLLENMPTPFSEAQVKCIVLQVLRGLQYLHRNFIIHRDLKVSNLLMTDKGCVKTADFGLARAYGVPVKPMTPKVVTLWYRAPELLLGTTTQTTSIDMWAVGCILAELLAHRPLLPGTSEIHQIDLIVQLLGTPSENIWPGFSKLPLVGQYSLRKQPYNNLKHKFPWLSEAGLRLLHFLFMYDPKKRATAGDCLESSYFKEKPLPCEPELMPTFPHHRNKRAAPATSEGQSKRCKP
UniProt Q00526: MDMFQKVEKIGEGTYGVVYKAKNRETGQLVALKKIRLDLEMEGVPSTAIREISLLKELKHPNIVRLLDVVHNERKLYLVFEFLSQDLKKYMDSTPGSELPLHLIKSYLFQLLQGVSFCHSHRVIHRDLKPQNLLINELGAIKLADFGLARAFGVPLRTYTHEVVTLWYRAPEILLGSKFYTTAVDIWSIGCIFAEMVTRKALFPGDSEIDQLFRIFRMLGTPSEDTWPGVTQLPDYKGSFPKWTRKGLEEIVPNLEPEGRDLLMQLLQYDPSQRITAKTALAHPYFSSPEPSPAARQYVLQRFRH
UniProt Q00535, whole entry, looked up: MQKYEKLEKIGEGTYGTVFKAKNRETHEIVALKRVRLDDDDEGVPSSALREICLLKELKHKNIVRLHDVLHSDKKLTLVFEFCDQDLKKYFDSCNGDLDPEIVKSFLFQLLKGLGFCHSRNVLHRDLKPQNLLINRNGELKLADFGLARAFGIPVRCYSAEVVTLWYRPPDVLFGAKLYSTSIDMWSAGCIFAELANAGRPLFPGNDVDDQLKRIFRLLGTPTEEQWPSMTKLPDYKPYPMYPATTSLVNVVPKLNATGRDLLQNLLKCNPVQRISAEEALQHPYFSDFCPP
UniProt Q00534, whole entry: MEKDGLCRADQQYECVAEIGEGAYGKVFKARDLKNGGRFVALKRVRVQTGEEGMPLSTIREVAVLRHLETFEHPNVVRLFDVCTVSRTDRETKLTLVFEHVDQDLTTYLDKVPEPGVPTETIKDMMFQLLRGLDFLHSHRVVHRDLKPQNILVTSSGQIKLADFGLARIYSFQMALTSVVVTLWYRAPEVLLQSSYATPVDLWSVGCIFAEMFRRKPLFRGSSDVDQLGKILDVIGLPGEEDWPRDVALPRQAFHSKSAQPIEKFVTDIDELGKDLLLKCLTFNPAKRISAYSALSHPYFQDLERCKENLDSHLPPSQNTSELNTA
UniProt O96017, whole entry: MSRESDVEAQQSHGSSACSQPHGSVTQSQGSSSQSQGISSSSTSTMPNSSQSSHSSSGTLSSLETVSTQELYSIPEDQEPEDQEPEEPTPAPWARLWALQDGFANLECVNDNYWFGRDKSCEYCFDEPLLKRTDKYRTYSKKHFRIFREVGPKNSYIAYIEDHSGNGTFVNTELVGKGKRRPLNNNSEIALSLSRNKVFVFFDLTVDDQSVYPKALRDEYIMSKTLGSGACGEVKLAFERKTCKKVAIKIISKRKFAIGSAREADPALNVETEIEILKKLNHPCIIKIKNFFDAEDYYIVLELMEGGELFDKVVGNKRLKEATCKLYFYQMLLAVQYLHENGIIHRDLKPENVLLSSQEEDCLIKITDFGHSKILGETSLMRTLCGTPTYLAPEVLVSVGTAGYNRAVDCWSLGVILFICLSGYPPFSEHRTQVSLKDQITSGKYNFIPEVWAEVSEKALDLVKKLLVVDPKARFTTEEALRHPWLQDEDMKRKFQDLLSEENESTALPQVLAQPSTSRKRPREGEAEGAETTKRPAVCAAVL
UniProt P07333, whole entry: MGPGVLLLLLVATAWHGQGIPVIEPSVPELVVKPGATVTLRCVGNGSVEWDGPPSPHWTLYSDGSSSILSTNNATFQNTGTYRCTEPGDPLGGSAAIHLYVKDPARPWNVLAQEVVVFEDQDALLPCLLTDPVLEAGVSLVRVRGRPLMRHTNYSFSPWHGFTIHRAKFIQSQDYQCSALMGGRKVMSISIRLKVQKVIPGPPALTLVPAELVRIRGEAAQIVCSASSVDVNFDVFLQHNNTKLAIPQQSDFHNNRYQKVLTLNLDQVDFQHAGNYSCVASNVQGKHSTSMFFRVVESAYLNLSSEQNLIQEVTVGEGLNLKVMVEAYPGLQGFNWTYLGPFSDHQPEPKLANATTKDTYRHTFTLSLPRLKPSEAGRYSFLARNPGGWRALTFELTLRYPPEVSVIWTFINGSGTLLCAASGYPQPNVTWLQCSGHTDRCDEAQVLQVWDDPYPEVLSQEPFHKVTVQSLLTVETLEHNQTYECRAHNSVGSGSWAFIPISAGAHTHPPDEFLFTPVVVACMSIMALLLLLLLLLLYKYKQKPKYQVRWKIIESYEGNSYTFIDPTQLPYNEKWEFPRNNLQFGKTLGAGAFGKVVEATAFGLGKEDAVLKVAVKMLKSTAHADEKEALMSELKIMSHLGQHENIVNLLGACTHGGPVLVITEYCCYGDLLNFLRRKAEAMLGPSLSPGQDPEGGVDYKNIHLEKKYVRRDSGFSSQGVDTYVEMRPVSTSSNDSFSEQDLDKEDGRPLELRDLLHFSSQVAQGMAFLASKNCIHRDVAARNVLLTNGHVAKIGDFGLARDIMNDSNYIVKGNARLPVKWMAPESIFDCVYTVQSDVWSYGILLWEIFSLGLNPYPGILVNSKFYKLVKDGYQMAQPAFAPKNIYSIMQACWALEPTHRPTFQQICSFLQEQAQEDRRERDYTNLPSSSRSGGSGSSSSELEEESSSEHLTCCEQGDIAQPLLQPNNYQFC
UniProt P41240: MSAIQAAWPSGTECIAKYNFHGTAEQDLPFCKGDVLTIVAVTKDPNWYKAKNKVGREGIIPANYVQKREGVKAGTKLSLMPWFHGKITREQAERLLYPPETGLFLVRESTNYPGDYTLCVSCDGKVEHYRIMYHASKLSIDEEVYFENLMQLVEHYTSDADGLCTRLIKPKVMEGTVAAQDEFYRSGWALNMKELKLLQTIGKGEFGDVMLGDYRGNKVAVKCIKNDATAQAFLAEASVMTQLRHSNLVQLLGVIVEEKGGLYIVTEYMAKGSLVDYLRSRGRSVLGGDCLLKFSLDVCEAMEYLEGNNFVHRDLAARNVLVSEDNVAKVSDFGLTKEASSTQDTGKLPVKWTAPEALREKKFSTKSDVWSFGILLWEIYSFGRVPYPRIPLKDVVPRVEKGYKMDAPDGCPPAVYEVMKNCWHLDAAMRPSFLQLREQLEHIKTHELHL

Tests used:
Assay in all cases: number of time points (of 5) at which kinase-Nluc abundance scored as decreased, DMSO-normalised (count); higher = more persistent destabilization
Settings in all cases: K562; 2-18 h
CAMK2A = CAMK2A (UniProt Q9UQM7)
CAMK2G = CAMK2G (UniProt Q13555)
CDK10 = CDK10 (UniProt Q15131)
CDK2 = CDK2 (UniProt P24941)
CDK3 = CDK3 (UniProt Q00526)
CDK5 = CDK5 (UniProt Q00535)
CDK6 = CDK6 (UniProt Q00534)
CHEK2 = CHEK2 (UniProt O96017)
CSF1R = CSF1R (UniProt P07333)
CSK = CSK (UniProt P41240)

Row | Structure (SMILES) | number of time points (CAMK2A) | number of time points (CAMK2G) | number of time points (CDK10) | number of time points (CDK2) | number of time points (CDK3) | number of time points (CDK5) | number of time points (CDK6) | number of time points (CHEK2) | number of time points (CSF1R) | number of time points (CSK)
1 | CN1C(=O)[C@@H](NC(=O)c2n[nH]c(Cc3ccccc3)n2)COc2ccccc21 (10 µM) | 0 | 0 | 0 | 0 | 0 | 0 | 0 | 0 | 0 | 0
2 | Cc1cc(C)nc(NS(=O)(=O)c2ccc(NC(=S)NC(=O)COc3ccc(Br)cc3Cl)cc2)n1 (2.5 µM) | 0 | 0 | 0 | 0 | 0 | 0 | 0 | 0 | 0 | 0
3 | CN(C)S(=O)(=O)c1ccc2c(c1)/C(=C/c1cc3c([nH]1)CCCC3)C(=O)N2 (2.5 µM) | 2 | 0 | 0 | 0 | 0 | 0 | 0 | 0 | 0 | 0
4 | O=c1cc(N2CCOCC2)nc2c3ccccc3ccn12 [Compound 401] (10 µM) | 0 | 0 | 0 | 0 | 0 | 0 | 0 | 0 | 0 | 0
5 | Cc1c(-c2ccc(C(N)=O)c3[nH]c4cc(C(C)(C)O)ccc4c23)cccc1-n1cnc2ccccc2c1=O (2.5 µM) | 0 | 0 | 0 | 0 | 0 | 0 | 0 | 0 | 0 | 0
6 | O=C(Nc1cccc(Nc2ncc(Br)c(NCCc3cnc[nH]3)n2)c1)N1CCCC1 (10 µM) | 0 | 0 | 0 | 0 | 0 | 0 | 0 | 0 | 0 | 0
7 | O[C@@H]1CO[C@H]2[C@@H]1OC[C@H]2Oc1nc2nc(-c3ccc(-c4ccccc4)cc3)c(Cl)cc2[nH]1 (10 µM) | 0 | 0 | 0 | 0 | 0 | 0 | 0 | 0 | 0 | 0
8 | N#CC(c1ccnc(OCc2ccc(CN3CCOCC3)cc2)n1)c1nc2ccccc2s1 (stereo not given) [Bentamapimod] (2.5 µM) | 0 | 0 | 0 | 0 | 0 | 0 | 0 | 0 | 0 | 0
9 | CNC(=O)c1cc2c(Oc3ccc(NC(=S)NC(=O)Cc4ccccc4)cc3F)ccnc2cc1OC [TAS-115 mesylate] (10 µM) | 2 | 0 | 3 | 0 | 1 | 0 | 0 | 0 | 0 | 0
10 | COc1ccc2cc(-c3nc(-c4ccc([S+](C)[O-])cc4)[nH]c3-c3ccncc3)ccc2c1 (stereo not given) [Tie2 kinase inhibitor 1] (2.5 µM) | 0 | 0 | 0 | 0 | 0 | 0 | 0 | 0 | 0 | 0
11 | O=C1NC(=O)C(c2cnc3ccccn23)=C1c1cn2c3c(cc(F)cc13)CNCC2 [GSK-3 inhibitor 1] (2.5 µM) | 0 | 0 | 0 | 0 | 0 | 0 | 0 | 0 | 0 | 0
12 | C[C@@H]1O[C@@H](O[C@@H]2[C@@H](O)[C@H](OCCc3ccc(O)c(O)c3)O[C@H](CO)[C@H]2OC(=O)/C=C/c2ccc(O)c(O)c2)[C@H](O)[C@H](O)[C@H]1O [Verbascoside] (10 µM) | 0 | 0 | 0 | 0 | 0 | 0 | 0 | 0 | 0 | 0
13 | Cc1cccc(-c2[nH]c(C(C)(C)C)nc2-c2ccc3nccnc3c2)n1 (10 µM) | 0 | 0 | 0 | 0 | 0 | 0 | 0 | 0 | 0 | 0
14 | CCCCCCCC/C=C\CCCCCCCCCCCC(=O)O [Erucic acid] (10 µM) | 0 | 0 | 0 | 0 | 0 | 0 | 0 | 0 | 0 | 0
15 | O=Nc1c2[nH]c3ccccc3nc-2c2ccccc12 [IQ-1S (free acid)] (2.5 µM) | 0 | 0 | 0 | 0 | 0 | 0 | 0 | 0 | 0 | 0
16 | Nc1nc(N)c2nc(-c3cccc(O)c3)cnc2n1 (10 µM) | 0 | 0 | 0 | 0 | 0 | 0 | 0 | 0 | 0 | 0
17 | O=C(CNc1cccc(Cl)c1)NC1CCCN(c2ncnc3[nH]ccc23)C1 (stereo not given) (10 µM) | 0 | 0 | 0 | 0 | 0 | 0 | 0 | 0 | 0 | 0

Shown as comma-separated lines: two of the compounds above
Row,Structure (SMILES),number of time points (CAMK2A),number of time points (CAMK2G),number of time points (CDK10),number of time points (CDK2),number of time points (CDK3),number of time points (CDK5),number of time points (CDK6),number of time points (CHEK2),number of time points (CSF1R),number of time points (CSK)
5,Cc1c(-c2ccc(C(N)=O)c3[nH]c4cc(C(C)(C)O)ccc4c23)cccc1-n1cnc2ccccc2c1=O (2.5 µM),0,0,0,0,0,0,0,0,0,0
6,O=C(Nc1cccc(Nc2ncc(Br)c(NCCc3cnc[nH]3)n2)c1)N1CCCC1 (10 µM),0,0,0,0,0,0,0,0,0,0

The listing continues.

Row | Structure (SMILES) | number of time points (CAMK2A) | number of time points (CAMK2G) | number of time points (CDK10) | number of time points (CDK2) | number of time points (CDK3) | number of time points (CDK5) | number of time points (CDK6) | number of time points (CHEK2) | number of time points (CSF1R) | number of time points (CSK)
18 | O=c1cc(-c2cccc3c2Sc2ccccc2S3)oc(N2CCOCC2)c1 (10 µM) | 0 | 0 | 0 | 0 | 0 | 0 | 0 | 0 | 0 | 0
19 | C=CC(=O)Nc1cccc(CNc2nc(Nc3ccc(N4CCN(C)CC4)cc3OC)ncc2Cl)c1 (10 µM) | 0 | 0 | 0 | 0 | 0 | 0 | 0 | 0 | 0 | 0
20 | CC1(C)Cc2c(sc(NC(=S)NC(=O)c3ccccc3)c2C(=O)O)CO1 (10 µM) | 0 | 0 | 0 | 0 | 0 | 0 | 0 | 0 | 0 | 0
21 | C[C@H](Nc1ncnc2[nH]cnc12)c1cc2ccc(F)cc2nc1-c1ccccn1 (10 µM) | 0 | 0 | 0 | 0 | 0 | 0 | 0 | 0 | 0 | 0
22 | C[C@@H]1COCCN1c1nc(-c2cnc(N)cc2C(F)F)nc(N2[C@H](C)COC[C@@H]2C)n1 (2.5 µM) | 0 | 0 | 0 | 0 | 0 | 0 | 0 | 0 | 0 | 0
23 | O=C1NC(=Nc2c(Cl)cccc2Cl)S/C1=C\c1ccc2nccnc2c1 (2.5 µM) | 0 | 0 | 0 | 0 | 0 | 0 | 0 | 4 | 3 | 0
24 | COc1cc2ncnc(Nc3ccc(F)c(Cl)c3)c2cc1NC(=O)/C=C/CN1CCCCC1 [Dacomitinib] (10 µM) | 0 | 0 | 0 | 0 | 0 | 0 | 0 | 0 | 0 | 0
25 | CC(C)CCNC(=O)c1ccc2c(c1)nc(Nc1n[nH]c3ccc(-c4ccccc4OC(F)(F)F)cc13)n2C1CCC(O)CC1 (stereo not drawn) [IRAK inhibitor 4 (trans)] (10 µM) | 0 | 0 | 0 | 0 | 0 | 0 | 0 | 0 | 0 | 0
26 | CS(=O)(=O)c1ccc(-c2cnc(N)c(-c3ccc(C(F)(F)F)nc3)c2)cc1 (10 µM) | 0 | 0 | 0 | 0 | 0 | 0 | 0 | 0 | 0 | 0
27 | Nc1n[nH]c2nc(-c3ccc(NS(=O)(=O)c4cc(Cl)ccc4F)cc3)cnc12 (10 µM) | 0 | 0 | 5 | 0 | 0 | 0 | 0 | 0 | 0 | 0
28 | CCCCCCCCCCCCCCCCOP(=O)([O-])OCC[N+](C)(C)C [Miltefosine] (10 µM) | 0 | 0 | 0 | 0 | 0 | 0 | 0 | 0 | 0 | 0
29 | CCCNC(=O)Nc1ccc(Oc2ncnc3cc(OC)c(OC)cc23)cc1Cl (2.5 µM) | 0 | 0 | 0 | 0 | 0 | 0 | 0 | 0 | 0 | 0
30 | CCn1c(=O)c(-c2cc[nH]n2)cc2c(C)nc(N)nc21 [Voxtalisib] (10 µM) | 0 | 0 | 0 | 0 | 0 | 0 | 0 | 0 | 0 | 0
31 | C[C@@H]1CCNC(=O)c2cc3ccc(C(=O)Nc4nc5ccccc5n4CCCN(C)C)cc3n21 (10 µM) | 0 | 0 | 0 | 0 | 0 | 0 | 0 | 0 | 0 | 0
32 | Nc1ncnc2c1c(-c1ccc(Oc3ccccc3)cc1)nn2C1CCN(CCOCCOCCOc2ccc3c(c2)CN(C2CCC(=O)NC2=O)C3=O)CC1 (stereo not given) (2.5 µM) | 0 | 0 | 0 | 0 | 0 | 0 | 0 | 0 | 0 | 0
33 | CCc1ccc(OCC(=O)Nc2ccc(F)c([N+](=O)[O-])c2)cc1 (10 µM) | 0 | 0 | 0 | 0 | 0 | 0 | 0 | 0 | 0 | 0
